Measurements as given in the supplement of paper PMC10735217.
Structures can show the parent of a compound that is named as a salt. The list shows a part of the results. Repeats in this data set agree poorly, so a single value says little.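 The human kidney-derived cells carry a stably integrated construct of eight TEAD-binding elements driving luciferase, read by luminescence in a drug-repurposing library screen. A compound counts as a hit when its signal is more than five robust Z scores above the plate mean.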

Test system: HEK293A TEAD-LUC reporter
Experiment: TEAD-luciferase reporter activity (YAP activation), robust Z score vs plate; higher = stronger YAP/TEAD activation
Conditions: 24 h

SMILES	TEAD-luciferase reporter activity (compound concentration: 200 nM)	TEAD-luciferase reporter activity (compound concentration: 2 uM)	TEAD-luciferase reporter activity (compound concentration: 10 uM)
CCCN1CC(c2ccc(S(C)(=O)=O)cc2)=C(c2ccc(C)cc2)C1=O [Imrecoxib]	inactive: -1.7	inactive: -0.404	inactive: -1.28
COC(=O)[C@H](C)NP(=O)(OCC1C=C[C@H](n2cnc3c(N)ncnc32)O1)Oc1ccccc1 (stereo partly drawn)	inactive: -0.816	inactive: -0.434	inactive: 1.95
COC(=O)C1=C(C)NC(C)=C(C(=O)OCCN2CCN(C)CC2)C1c1cccc([N+](=O)[O-])c1 (stereo not drawn)	inactive: -1.43	inactive: -2.02	inactive: 3
NC(=O)CN1C=CCC(C(N)=O)=C1 [Caricotamide]	inactive: -2.54	inactive: 1.4	inactive: -0.623
Cc1ccc(/C=C/C(=O)NCCCCN2CCN(C(c3ccccc3)c3ccccc3)CC2)cn1	inactive: 3.09	inactive: 0.435	inactive: 4.49
CCCCCCCCCCCCCCCC(=O)OCCC1CCN(CCCN2c3ccccc3Sc3ccc(S(=O)(=O)N(C)C)cc32)CC1 [Pipotiazine Palmitate]		inactive: -1.21	
CCCCCCCCCCCCCCCC(=O)OCCC1CCN(CCCN2c3ccccc3Sc3ccc(S(=O)(=O)N(C)C)cc32)CC1 [pipotiazine palmitate]	inactive: 0.0871	inactive: 4.03	inactive: -0.666
CCO		inactive: -0.0634	inactive: -0.849
COc1cc(N2CCC(N3CCN(C)CC3)CC2)ccc1Nc1ncc(Cl)c(Nc2ccccc2P(C)(C)=O)n1 [Brigatinib]	inactive: -0.828	inactive: -2.16	inactive: -0.239
CCCOc1ccc(S(=O)(=O)N2CCN(CCO)CC2)cc1-c1nc2c(CCC)cn(CC)c2c(=O)[nH]1 [mirodenafil]	inactive: 0.977	inactive: -0.849	inactive: -0.0304
COC1=Cc2ccccc2/C(=C\C(=O)O)c2ccsc21	inactive: -0.0249	inactive: -0.122	inactive: -0.697
CCCCCC(O)c1ccc(N2C(=O)CC[C@@H]2COCc2ccc(C(=O)OC(C)C)s2)cc1 (stereo partly drawn) [simenepag isopropyl]	inactive: 1.17	inactive: 1.35	inactive: -0.0253
CC(=O)C1=CCC2C3CC=C4C[C@@H](O)CC[C@]4(C)C3CC[C@]12C (stereo partly drawn)	inactive: -1.55	inactive: -0.762	inactive: 0.933
C[C@@H]1CN[C@@H](C2CC2)C(=O)N(C)[C@H](C)C(=O)N[C@H](Cc2ccc(F)cc2)C(=O)NCCCc2ccccc2O1	inactive: 0.0508	inactive: -0.16	inactive: 1.91
COC(=O)C1=C(CF)NC(C)=C(C(=O)OC(C)C)C1c1c(F)ccc(Cl)c1C(F)(F)F (stereo not drawn)	inactive: 1.24	inactive: -0.262	inactive: -1.42
C=C1CC[C@H](O)C/C1=C/C=C1\CCC[C@]2(C)[C@@H]([C@H](C)/C=C/[C@H](C)C(C)C)CC[C@@H]12 [Ergocalciferol]		inactive: -1.47	
C=C1CC[C@H](O)C/C1=C/C=C1\CCC[C@]2(C)[C@@H]([C@H](C)/C=C/[C@H](C)C(C)C)CC[C@@H]12	inactive: -0.204		inactive: 0.652

SMILES	TEAD-luciferase reporter activity (compound concentration: 200 nM)	TEAD-luciferase reporter activity (compound concentration: 2 uM)	TEAD-luciferase reporter activity (compound concentration: 10 uM)
CCCCCN(C(=O)NC)c1ccc2nc(CCCC)n(Cc3ccc(NC(=O)c4c(Cl)ccc(Cl)c4C(=O)O)cc3)c2c1	inactive: -0.857	inactive: -1.94	inactive: -0.515
CCCCCCCCN(C)CC(P(=O)(O)O)P(=O)(O)O	inactive: -0.436	inactive: -0.621	inactive: -0.84
O=c1[nH]c(=O)n(Cc2ccc(OC/C=C/COc3ccc(Cn4oc(=O)[nH]c4=O)cc3)cc2)o1	inactive: -1.81	inactive: -0.294	inactive: -0.107
NCC(=O)N1Cc2ccccc2CC2(CCCCN2CC2CCOCC2)C1 (stereo not drawn)	inactive: -1.49		inactive: -1.08
CN(C)c1cc(CNCC(C)(C)C)c(O)c2c1C[C@H]1C[C@H]3[C@H](N(C)C)C(O)=C(C(N)=O)C(=O)[C@@]3(O)C(O)=C1C2=O [omadacycline]	inactive: 0.00621	inactive: -1.01	inactive: -0.941
CC(C)=CCOc1cc(NC(=S)c2ccoc2C)ccc1Cl	inactive: 2.13	inactive: -0.0565	inactive: -0.0158
COC(=O)c1cnc2n1CCc1ccccc1C2=C1CCN(CCc2ccc(OCc3ccc4ccccc4n3)cc2)CC1 [[11C]Laniquidar]	inactive: 1.11	inactive: 1.73	inactive: 1.25
COc1ccc(CCN(C)CCCC(C#N)(c2ccc(OC)c(OC)c2)C(C)C)cc1OC (racemic) [(Ã ±)-Verapamil hydrochloride]	inactive: -1.23		inactive: -0.306
COc1cc(/C=C/C(=O)CCCCc2ccccc2)cc(OC)c1O	inactive: -0.409	inactive: -0.132	inactive: -0.541
C#CCN(C)CC1=Cc2ccccc2Oc2ccccc21	inactive: -0.392	inactive: -0.231	inactive: -0.395
Cc1cc(C)nc(N2CC3CN(C(=O)c4c(F)cccc4-n4nccn4)CC3C2)n1 (stereo not drawn)	inactive: -0.74	inactive: -1.41	inactive: 3.2
CCc1nn(CCCN2CCN(c3cccc(Cl)c3)CC2)c(=O)n1CCOc1ccccc1 [nefazodone hydrochloride]		inactive: -1.45	
CCc1nn(CCCN2CCN(c3cccc(Cl)c3)CC2)c(=O)n1CCOc1ccccc1 [Nefazodone]	inactive: -1.94		inactive: -0.678
N=C1CCCN1Cc1[nH]c(=O)[nH]c(=O)c1Cl [Tipiracil hydrochloride]	inactive: -0.338	inactive: 2.11	inactive: -1.25
OC1CCCc2nc3ccccc3c(NCc3ccccc3)c21 (stereo not drawn) [Suronacrine maleate]	inactive: -1.73	inactive: -0.759	inactive: -0.518
CC(C(=O)O)c1ccc2c(c1)Cc1cccnc1O2 (stereo not drawn) [pranoprofen]	inactive: 0.25	inactive: 0.853	active: 7.08

Given in markdown: part of the list above

| SMILES | TEAD-luciferase reporter activity (compound concentration: 200 nM) | TEAD-luciferase reporter activity (compound concentration: 2 uM) | TEAD-luciferase reporter activity (compound concentration: 10 uM) |
| --- | --- | --- | --- |
| NCC(=O)N1Cc2ccccc2CC2(CCCCN2CC2CCOCC2)C1 (stereo not drawn) | inactive: -1.49 |  | inactive: -1.08 |
| CN(C)c1cc(CNCC(C)(C)C)c(O)c2c1C[C@H]1C[C@H]3[C@H](N(C)C)C(O)=C(C(N)=O)C(=O)[C@@]3(O)C(O)=C1C2=O [omadacycline] | inactive: 0.00621 | inactive: -1.01 | inactive: -0.941 |
| CC(C)=CCOc1cc(NC(=S)c2ccoc2C)ccc1Cl | inactive: 2.13 | inactive: -0.0565 | inactive: -0.0158 |
| COC(=O)c1cnc2n1CCc1ccccc1C2=C1CCN(CCc2ccc(OCc3ccc4ccccc4n3)cc2)CC1 [[11C]Laniquidar] | inactive: 1.11 | inactive: 1.73 | inactive: 1.25 |
| COc1ccc(CCN(C)CCCC(C#N)(c2ccc(OC)c(OC)c2)C(C)C)cc1OC (racemic) [(Ã ±)-Verapamil hydrochloride] | inactive: -1.23 |  | inactive: -0.306 |
| COc1cc(/C=C/C(=O)CCCCc2ccccc2)cc(OC)c1O | inactive: -0.409 | inactive: -0.132 | inactive: -0.541 |
| C#CCN(C)CC1=Cc2ccccc2Oc2ccccc21 | inactive: -0.392 | inactive: -0.231 | inactive: -0.395 |
